Data as given in PubChem BioAssay AID652243 (Drosophila RNAi Screening Center, 2013).
The deposit covers about 24,000 reagents; this is an unselected part of those with a known target gene and a result. Over the whole deposit, 246 (1%) are marked active. 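Plates not normalised; calls are printed but the firefly/Renilla ratio behind them is not deposited; fold cut for lowering reported inconsistently.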 Raw values are not corrected between plates. A plus sign joins genes that one reagent is predicted to hit. Reagent sequences are not shown. Not stated in the record: the amount of reagent.

- Test: 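Fly regulators of androgen-dependent reporter output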 (primary screen)
- System: Drosophila S2R+ cells
- Reagent: long dsRNA against Drosophila genes
- Time to read-out: 72 h (48 h, then 24 h hormone)
- Conditions: synthetic androgen R1881 at 10 nM for 24 h
- Read-out: 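Per-well raw luminescence of the androgen-driven firefly reporter and of the Renilla control, two replicates each, without normalisation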
- Reading the numbers: firefly reporter light: higher = more light from androgen-responsive reporter; Renilla control light: higher = more constitutive control signal (cell number, transfection)
- Hit rule: 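Hit when the log firefly-to-Renilla ratio dropped or increased by a fixed fold versus the mean of GFP or LacZ controls across duplicate plates; lowering cut given as 1.5 and as 3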
- Calls: active = hit: reporter lowered or raised; inactive = no hit

| predicted target | amplicon | firefly reporter light, replicate 1 | firefly reporter light, replicate 2 | Renilla control light, replicate 1 | Renilla control light, replicate 2 | Call |
| --- | --- | --- | --- | --- | --- | --- |
| AstC-R2 (GeneID 40019) | DRSC23467 | 8.48e5 | 1.04e6 | 1.54e6 | 1.36e6 | inactive |
| CG1024 (GeneID 40789) | DRSC12496 | 60661 | 55180 | 9.80e5 | 1.56e6 | inactive |
| neb (GeneID 35293) | DRSC03577 | 7.91e5 | 9.85e5 | 1.75e6 | 1.86e6 | inactive |
| neb (GeneID 35293) | DRSC28464 | 1.89e5 | 4.77e5 | 6.61e5 | 1.27e6 | inactive |
| Rpt3R (GeneID 41190) | DRSC16501 | 1.10e5 | 1.49e5 | 2.18e6 | 2.49e6 | inactive |
| Rpt3R (GeneID 41190) | DRSC25067 | 6.43e5 | 6.98e5 | 7.75e5 | 1.20e6 | inactive |
| Tango2 (GeneID 32319) | DRSC19394 | 90957 | 1.05e5 | 5.78e5 | 7.97e5 | inactive |
| Tango2 (GeneID 32319) | DRSC21526 | 6.87e5 | 7.98e5 | 1.61e6 | 1.46e6 | inactive |
| uif (GeneID 33983) | DRSC03427 | 2.32e5 | 1.75e5 | 2.40e6 | 2.03e6 | inactive |
| yellow-f2 (GeneID 41596) | DRSC16372 | 80295 | 81284 | 5.80e5 | 7.40e5 | inactive |
| yellow-f2 (GeneID 41596) | DRSC26523 | 2.33e5 | 2.26e5 | 3.24e5 | 2.10e5 | inactive |
| CG33654 (GeneID 3771825) | DRSC37818 | 9.40e5 | 7.02e5 | 2.19e6 | 1.86e6 | inactive |
| zye (GeneID 40255) | DRSC11784 | 4.31e5 | 2.43e5 | 3.20e6 | 2.30e6 | inactive |
| CG42233 (GeneID 43754) | DRSC14328 | 2.80e5 | 3.18e5 | 2.05e6 | 3.51e6 | inactive |
| CG42233 (GeneID 43754) | DRSC15416 | 1.91e5 | 2.28e5 | 2.01e6 | 2.06e6 | inactive |
| CG42233 (GeneID 43754) | DRSC24948 | 9.28e5 | 9.11e5 | 7.02e5 | 8.88e5 | inactive |
| CG42233 (GeneID 43754) | DRSC26880 | 3.25e5 | 4.81e5 | 4.52e5 | 5.68e5 | inactive |
| Adh + Adhr | DRSC01862 | 1.22e6 | 7.90e5 | 1.22e6 | 1.66e6 | inactive |
| Adh + Adhr | DRSC01863 | 2.13e5 | 1.59e5 | 2.06e6 | 1.60e6 | inactive |
| Rab18 (GeneID 44360) | DRSC18702 | 59105 | 83316 | 6.24e5 | 4.56e5 | inactive |
| Rab18 (GeneID 44360) | DRSC26667 | 2.44e5 | 1.85e5 | 6.16e5 | 5.90e5 | inactive |
| RpS28a (GeneID 43564) | DRSC15064 | 2.33e5 | 1.17e5 | 1.89e6 | 2.23e6 | inactive |
| CG32647 (GeneID 326226) | DRSC19690 | 5.83e5 | 3.73e5 | 4.72e6 | 3.36e6 | inactive |
| CG32647 (GeneID 326226) | DRSC19878 | 4.27e5 | 3.41e5 | 2.63e6 | 1.78e6 | inactive |
| CG13557 (GeneID 37717) | DRSC04195 | 3.34e5 | 4.21e5 | 2.06e6 | 2.44e6 | inactive |
| Polr3D (GeneID 40002) | DRSC10485 | 79961 | 26277 | 7.97e5 | 2.83e5 | inactive |
| Polr3D (GeneID 40002) | DRSC29157 | 3.62e5 | 3.83e5 | 8.73e5 | 7.20e5 | inactive |
| Npc2c (GeneID 41233) | DRSC15523 | 1.13e5 | 1.36e5 | 1.34e6 | 2.29e6 | inactive |
| Npc2c (GeneID 41233) | DRSC28593 | 4.67e5 | 5.34e5 | 1.89e6 | 1.35e6 | inactive |
| Arp10 (GeneID 32969) | DRSC19448 | 83819 | 81527 | 6.00e5 | 6.24e5 | inactive |
| Arp10 (GeneID 32969) | DRSC28715 | 3.30e5 | 2.57e5 | 9.69e5 | 9.80e5 | inactive |
| enc (GeneID 44543) | DRSC08716 | 96666 | 81519 | 1.45e6 | 1.35e6 | inactive |
| enc (GeneID 44543) | DRSC27545 | 4.24e5 | 3.22e5 | 7.73e5 | 8.53e5 | inactive |
| CG10508 (GeneID 40342) | DRSC11612 | 84449 | 1.14e5 | 5.06e5 | 5.71e5 | inactive |
| CG10508 (GeneID 40342) | DRSC11613 | 3.28e5 | 3.63e5 | 3.22e6 | 3.19e6 | inactive |
| IFT54 (GeneID 41739) | DRSC15469 | 1.73e5 | 2.41e5 | 2.59e6 | 3.17e6 | inactive |

Laid out differently: entries from further up
{"predicted target":"CG32647 (GeneID 326226)","amplicon":"DRSC19878","firefly reporter light, replicate 1":4.27e5,"firefly reporter light, replicate 2":3.41e5,"Renilla control light, replicate 1":2.63e6,"Renilla control light, replicate 2":1.78e6,"Call":"inactive"}
{"predicted target":"CG13557 (GeneID 37717)","amplicon":"DRSC04195","firefly reporter light, replicate 1":3.34e5,"firefly reporter light, replicate 2":4.21e5,"Renilla control light, replicate 1":2.06e6,"Renilla control light, replicate 2":2.44e6,"Call":"inactive"}
{"predicted target":"Polr3D (GeneID 40002)","amplicon":"DRSC10485","firefly reporter light, replicate 1":79961,"firefly reporter light, replicate 2":26277,"Renilla control light, replicate 1":7.97e5,"Renilla control light, replicate 2":2.83e5,"Call":"inactive"}
{"predicted target":"Polr3D (GeneID 40002)","amplicon":"DRSC29157","firefly reporter light, replicate 1":3.62e5,"firefly reporter light, replicate 2":3.83e5,"Renilla control light, replicate 1":8.73e5,"Renilla control light, replicate 2":7.20e5,"Call":"inactive"}
{"predicted target":"Npc2c (GeneID 41233)","amplicon":"DRSC15523","firefly reporter light, replicate 1":1.13e5,"firefly reporter light, replicate 2":1.36e5,"Renilla control light, replicate 1":1.34e6,"Renilla control light, replicate 2":2.29e6,"Call":"inactive"}

More reagents follow.
| predicted target | amplicon | firefly reporter light, replicate 1 | firefly reporter light, replicate 2 | Renilla control light, replicate 1 | Renilla control light, replicate 2 | Call |
| --- | --- | --- | --- | --- | --- | --- |
| PNKP (GeneID 40994) | DRSC16512 | 1.10e5 | 1.31e5 | 1.85e6 | 2.58e6 | inactive |
| beat-Vb (GeneID 41583) | DRSC12940 | 2.44e5 | 2.21e5 | 2.60e5 | 5.93e5 | inactive |
| beat-Vb (GeneID 41583) | DRSC14844 | 4.24e5 | 5.07e5 | 2.42e6 | 3.56e6 | inactive |
| beat-Vb (GeneID 41583) | DRSC14845 | 71828 | 96568 | 1.64e6 | 2.09e6 | inactive |
| Ssl1 (GeneID 40509) | DRSC11634 | 60154 | 76655 | 2.64e5 | 2.97e5 | inactive |
| p38a (GeneID 42866) | DRSC16743 | 1.50e5 | 2.58e5 | 2.80e6 | 2.28e6 | active |
| p38a (GeneID 42866) | DRSC36706 | – | – | – | – | inactive |
| p38a (GeneID 42866) | DRSC36707 | – | – | – | – | inactive |
| CG9018 (GeneID 38283) | DRSC08618 | 51088 | 38516 | 5.97e5 | 7.87e5 | inactive |
| side-VIII (GeneID 37310) | DRSC05880 | 1.58e5 | 2.07e5 | 3.55e5 | 3.50e5 | inactive |
| side-VIII (GeneID 37310) | DRSC05883 | 43836 | 52407 | 1.29e5 | 1.61e5 | inactive |
| side-VIII (GeneID 37310) | DRSC06157 | 1.83e5 | 1.79e5 | 1.89e6 | 1.69e6 | inactive |
| side-VIII (GeneID 37310) | DRSC23187 | 7.99e5 | 8.12e5 | 2.01e6 | 1.96e6 | inactive |
| side-VIII (GeneID 37310) | DRSC28353 | 3.19e5 | 5.55e5 | 1.25e6 | 1.75e6 | inactive |
| side-VIII (GeneID 37310) | DRSC39314 | – | – | – | – | inactive |
| Nxf3 (GeneID 317878) | DRSC21749 | 3.47e5 | 4.62e5 | 1.13e6 | 2.46e6 | inactive |
| Gr22c (GeneID 117499) | DRSC22081 | 6.96e5 | 5.97e5 | 2.40e6 | 1.87e6 | inactive |
| Gr22c (GeneID 117499) | DRSC29715 | 9.84e5 | 6.44e5 | 1.57e6 | 1.19e6 | inactive |
| CG6425 (GeneID 43216) | DRSC16038 | 87143 | 1.19e5 | 5.95e5 | 6.30e5 | inactive |
| CG14312 (GeneID 42195) | DRSC14791 | 70628 | 94643 | 1.38e6 | 1.56e6 | inactive |
| CG2267 (GeneID 43639) | DRSC15435 | 1.06e5 | 73581 | 2.05e6 | 2.27e6 | inactive |
| CG9406 (GeneID 37405) | DRSC04552 | 3.86e5 | 4.06e5 | 2.05e6 | 1.71e6 | inactive |
